Laboratory results: publication PMC8331092
No constants are given. Whether binding was seen depends on the method and setting. For part of these data: In cells and extracts the contact can be indirect. Some results given as binding are weak or reduced against the parent protein; the word gives no strength.

Sequences of proteins named here, by UniProt entry; tags and fusion partners are left off.
UniProt Q9BRT9: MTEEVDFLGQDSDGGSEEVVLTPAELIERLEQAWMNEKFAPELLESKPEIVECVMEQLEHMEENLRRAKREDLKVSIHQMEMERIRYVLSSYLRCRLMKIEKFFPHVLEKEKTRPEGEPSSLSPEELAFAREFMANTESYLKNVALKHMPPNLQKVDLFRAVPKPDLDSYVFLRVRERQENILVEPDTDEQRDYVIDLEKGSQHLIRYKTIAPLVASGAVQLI
UniProt P49736: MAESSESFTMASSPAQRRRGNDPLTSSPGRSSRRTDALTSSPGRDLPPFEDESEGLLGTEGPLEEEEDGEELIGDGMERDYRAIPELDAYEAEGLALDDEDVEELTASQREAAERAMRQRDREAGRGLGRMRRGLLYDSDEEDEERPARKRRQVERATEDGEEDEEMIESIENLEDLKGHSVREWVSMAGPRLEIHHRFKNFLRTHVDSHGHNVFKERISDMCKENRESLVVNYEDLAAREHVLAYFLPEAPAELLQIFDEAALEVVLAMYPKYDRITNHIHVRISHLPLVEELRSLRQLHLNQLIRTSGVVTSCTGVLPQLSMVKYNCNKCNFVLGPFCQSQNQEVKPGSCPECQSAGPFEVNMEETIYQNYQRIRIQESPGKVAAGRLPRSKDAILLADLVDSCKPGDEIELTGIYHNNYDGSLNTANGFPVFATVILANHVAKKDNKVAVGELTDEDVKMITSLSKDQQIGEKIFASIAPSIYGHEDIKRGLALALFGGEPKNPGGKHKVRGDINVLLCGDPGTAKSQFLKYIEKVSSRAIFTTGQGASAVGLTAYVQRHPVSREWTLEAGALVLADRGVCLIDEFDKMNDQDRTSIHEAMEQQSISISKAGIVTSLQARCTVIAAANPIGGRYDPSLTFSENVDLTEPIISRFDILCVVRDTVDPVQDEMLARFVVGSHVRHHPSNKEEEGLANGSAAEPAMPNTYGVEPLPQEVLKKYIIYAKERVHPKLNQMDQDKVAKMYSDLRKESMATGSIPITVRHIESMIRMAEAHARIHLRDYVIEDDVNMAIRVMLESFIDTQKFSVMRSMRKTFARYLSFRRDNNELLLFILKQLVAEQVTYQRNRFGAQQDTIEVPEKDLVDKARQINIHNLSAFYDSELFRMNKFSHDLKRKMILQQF
UniProt Q9UNS1: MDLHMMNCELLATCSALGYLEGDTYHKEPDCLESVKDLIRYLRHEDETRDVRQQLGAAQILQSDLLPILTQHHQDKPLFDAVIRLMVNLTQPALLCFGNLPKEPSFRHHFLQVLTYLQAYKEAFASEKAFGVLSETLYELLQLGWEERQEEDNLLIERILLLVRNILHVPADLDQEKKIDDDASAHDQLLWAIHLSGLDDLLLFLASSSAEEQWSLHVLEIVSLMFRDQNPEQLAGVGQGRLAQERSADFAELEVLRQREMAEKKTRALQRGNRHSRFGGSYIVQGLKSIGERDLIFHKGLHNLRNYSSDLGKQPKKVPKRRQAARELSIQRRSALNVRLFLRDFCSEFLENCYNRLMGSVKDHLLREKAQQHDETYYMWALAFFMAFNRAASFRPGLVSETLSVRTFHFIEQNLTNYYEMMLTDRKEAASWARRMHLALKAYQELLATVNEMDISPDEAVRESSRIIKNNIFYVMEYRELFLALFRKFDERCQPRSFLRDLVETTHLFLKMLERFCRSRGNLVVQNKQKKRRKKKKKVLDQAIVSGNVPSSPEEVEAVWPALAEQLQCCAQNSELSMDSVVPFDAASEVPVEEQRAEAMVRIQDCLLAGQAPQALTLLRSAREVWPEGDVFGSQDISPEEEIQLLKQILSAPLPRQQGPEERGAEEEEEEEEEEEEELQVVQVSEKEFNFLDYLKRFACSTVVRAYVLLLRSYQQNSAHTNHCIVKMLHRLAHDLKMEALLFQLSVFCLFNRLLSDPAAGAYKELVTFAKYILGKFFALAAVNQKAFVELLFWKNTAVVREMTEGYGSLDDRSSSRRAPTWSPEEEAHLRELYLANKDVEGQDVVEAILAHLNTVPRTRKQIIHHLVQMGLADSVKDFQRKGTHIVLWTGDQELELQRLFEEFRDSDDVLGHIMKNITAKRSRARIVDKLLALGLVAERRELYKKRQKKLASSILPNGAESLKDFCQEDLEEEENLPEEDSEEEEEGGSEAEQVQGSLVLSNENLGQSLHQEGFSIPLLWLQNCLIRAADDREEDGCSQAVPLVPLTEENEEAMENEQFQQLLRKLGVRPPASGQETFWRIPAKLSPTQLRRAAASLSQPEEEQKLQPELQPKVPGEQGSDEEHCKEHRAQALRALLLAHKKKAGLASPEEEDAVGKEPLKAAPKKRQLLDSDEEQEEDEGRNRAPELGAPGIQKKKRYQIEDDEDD
UniProt Q9NRF9: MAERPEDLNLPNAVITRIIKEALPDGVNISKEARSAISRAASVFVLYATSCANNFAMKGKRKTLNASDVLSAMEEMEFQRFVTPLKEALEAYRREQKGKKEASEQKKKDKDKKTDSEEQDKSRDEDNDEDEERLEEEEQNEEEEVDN
UniProt Q07864: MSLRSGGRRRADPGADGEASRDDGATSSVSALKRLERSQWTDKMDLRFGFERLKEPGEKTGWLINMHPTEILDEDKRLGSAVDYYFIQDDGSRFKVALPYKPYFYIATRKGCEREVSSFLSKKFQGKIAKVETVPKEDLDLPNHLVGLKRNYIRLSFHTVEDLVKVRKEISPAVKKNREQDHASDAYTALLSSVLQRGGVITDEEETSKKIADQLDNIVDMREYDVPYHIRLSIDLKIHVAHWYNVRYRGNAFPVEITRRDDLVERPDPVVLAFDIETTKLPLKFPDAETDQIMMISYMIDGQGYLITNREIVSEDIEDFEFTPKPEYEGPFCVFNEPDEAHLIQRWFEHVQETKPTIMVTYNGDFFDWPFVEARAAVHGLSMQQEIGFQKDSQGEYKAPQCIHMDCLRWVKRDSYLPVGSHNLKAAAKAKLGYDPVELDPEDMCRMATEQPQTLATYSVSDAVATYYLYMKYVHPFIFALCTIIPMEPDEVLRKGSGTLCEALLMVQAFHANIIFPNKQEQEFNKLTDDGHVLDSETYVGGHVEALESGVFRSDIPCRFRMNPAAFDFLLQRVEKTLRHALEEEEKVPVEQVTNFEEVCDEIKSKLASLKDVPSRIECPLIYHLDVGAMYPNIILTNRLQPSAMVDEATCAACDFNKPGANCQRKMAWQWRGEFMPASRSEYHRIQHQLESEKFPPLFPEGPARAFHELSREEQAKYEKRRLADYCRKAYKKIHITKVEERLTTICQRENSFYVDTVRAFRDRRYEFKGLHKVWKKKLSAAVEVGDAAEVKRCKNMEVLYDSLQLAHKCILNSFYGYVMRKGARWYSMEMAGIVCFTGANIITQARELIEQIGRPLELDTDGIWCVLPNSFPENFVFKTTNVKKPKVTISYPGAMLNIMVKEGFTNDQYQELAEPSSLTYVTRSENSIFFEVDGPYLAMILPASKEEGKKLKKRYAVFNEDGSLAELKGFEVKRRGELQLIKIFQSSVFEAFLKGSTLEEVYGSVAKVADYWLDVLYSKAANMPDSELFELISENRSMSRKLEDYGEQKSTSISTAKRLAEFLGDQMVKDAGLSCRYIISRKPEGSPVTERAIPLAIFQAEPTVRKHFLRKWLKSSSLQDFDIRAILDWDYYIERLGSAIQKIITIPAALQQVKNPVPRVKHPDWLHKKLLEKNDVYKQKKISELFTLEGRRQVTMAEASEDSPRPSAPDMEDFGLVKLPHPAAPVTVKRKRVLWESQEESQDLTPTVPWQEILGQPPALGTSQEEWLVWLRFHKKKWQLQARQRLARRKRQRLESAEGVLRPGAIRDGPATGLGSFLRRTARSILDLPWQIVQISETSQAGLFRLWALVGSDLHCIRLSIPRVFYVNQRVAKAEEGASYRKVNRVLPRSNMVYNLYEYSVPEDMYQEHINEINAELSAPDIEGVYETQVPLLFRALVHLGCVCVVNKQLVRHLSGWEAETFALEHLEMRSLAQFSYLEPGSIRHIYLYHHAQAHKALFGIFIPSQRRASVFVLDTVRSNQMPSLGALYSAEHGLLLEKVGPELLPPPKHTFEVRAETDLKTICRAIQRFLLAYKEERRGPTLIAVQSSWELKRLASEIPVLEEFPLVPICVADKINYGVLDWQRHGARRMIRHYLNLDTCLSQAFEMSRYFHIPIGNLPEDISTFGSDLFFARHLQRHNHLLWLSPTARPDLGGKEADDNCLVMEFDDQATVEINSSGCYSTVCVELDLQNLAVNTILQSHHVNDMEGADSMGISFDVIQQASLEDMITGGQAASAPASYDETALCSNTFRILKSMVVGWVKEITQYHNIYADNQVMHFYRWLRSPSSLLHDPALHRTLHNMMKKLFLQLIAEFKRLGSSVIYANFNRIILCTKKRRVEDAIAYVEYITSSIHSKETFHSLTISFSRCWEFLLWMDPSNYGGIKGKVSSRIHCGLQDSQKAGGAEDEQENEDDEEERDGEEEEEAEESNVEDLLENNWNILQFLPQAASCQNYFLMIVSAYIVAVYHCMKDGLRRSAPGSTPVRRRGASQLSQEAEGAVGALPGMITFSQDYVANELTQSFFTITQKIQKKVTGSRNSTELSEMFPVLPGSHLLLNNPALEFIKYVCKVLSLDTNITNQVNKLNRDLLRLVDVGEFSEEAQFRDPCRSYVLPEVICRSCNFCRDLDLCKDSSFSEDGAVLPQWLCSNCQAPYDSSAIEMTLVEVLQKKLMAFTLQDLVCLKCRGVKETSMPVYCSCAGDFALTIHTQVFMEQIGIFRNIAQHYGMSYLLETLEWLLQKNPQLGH

target: GFP-SLD5 (human (endogenous in RPE1)) (UniProt Q9BRT9); assay: co-IP; GFP-Trap agarose beads, 2 h at 4°C, extracts of homozygous GFP-SLD5 RPE1 cells digested with Pierce Universal Nuclease; 100 mM HEPES-KOH pH 7.9, 100 mM potassium acetate, 10 mM magnesium acetate; immunoblotting; cells treated as indicated with 5 µM CB-5083 (4 h) and 5 µM MLN4924 (6 h)

binding | Molecule
binds | MCM2 (from UniProt P49736 1-904)
binds | CDC45 (protein, UniProt O75419 1-566) MFVSDFRKEFYEVVQSQRVLLFVASDVDALCACKILQALFQCDHVQYTLVPVSGWQELETAFLEHKEQFHYFILINCGANVDLLDILQPDEDTIFFVCDTHRPVNVVNVYNDTQIKLLIKQDDDLEVPAYEDIFRDEEEDEEHSGNDSDGSEPSEKRTRLEEEIVEQTMRRRQRREWEARRRDILFDYEQYEYHGTSSAMVMFELAWMLSKDLNDMLWWAIVGLTDQWVQDKITQMKYVTDVGVLQRHVSRHNHRNEDEENTLSVDCTRISFEYDLRLVLYQHWSLHDSLCNTSYTAARFKLWSVHGQKRLQEFLADMGLPLKQVKQKFQAMDISLKENLREMIEESANKFGMKDMRVQTFSIHFGFKHKFLASDVVFATMSLMESPEKDGSGTDHFIQALDSLSRSNLDKLYHGLELAKKQLRATQQTIASCLCTNLVISQGPFLYCSLMEGTPDVMLFSRPASLSLLSKHLLKSFVCSTKNRRCKLLPLVMAAPLSMEHGTVTVVGIPPETDSSDRKNFFGRAFEKAAESTSSRMLHNHFDLSVIELKAEDRSKFLDALISLLS
binds | MCM6 (protein, UniProt Q14566 1-821) MDLAAAAEPGAGSQHLEVRDEVAEKCQKLFLDFLEEFQSSDGEIKYLQLAEELIRPERNTLVVSFVDLEQFNQQLSTTIQEEFYRVYPYLCRALKTFVKDRKEIPLAKDFYVAFQDLPTRHKIRELTSSRIGLLTRISGQVVRTHPVHPELVSGTFLCLDCQTVIRDVEQQFKYTQPNICRNPVCANRRRFLLDTNKSRFVDFQKVRIQETQAELPRGSIPRSLEVILRAEAVESAQAGDKCDFTGTLIVVPDVSKLSTPGARAETNSRVSGVDGYETEGIRGLRALGVRDLSYRLVFLACCVAPTNPRFGGKELRDEEQTAESIKNQMTVKEWEKVFEMSQDKNLYHNLCTSLFPTIHGNDEVKRGVLLMLFGGVPKTTGEGTSLRGDINVCIVGDPSTAKSQFLKHVEEFSPRAVYTSGKASSAAGLTAAVVRDEESHEFVIEAGALMLADNGVCCIDEFDKMDVRDQVAIHEAMEQQTISITKAGVKATLNARTSILAAANPISGHYDRSKSLKQNINLSAPIMSRFDLFFILVDECNEVTDYAIARRIVDLHSRIEESIDRVYSLDDIRRYLLFARQFKPKISKESEDFIVEQYKHLRQRDGSGVTKSSWRITVRQLESMIRLSEAMARMHCCDEVQPKHVKEAFRLLNKSIIRVETPDVNLDQEEEIQMEVDEGAGGINGHADSPAPVNGINGYNEDINQESAPKASLRLGFSEYCRISNLIVLHLRKVEEEEDESALKRSELVNWYLKEIESEIDSEEELINKKRIIEKVIHRLTHYDHVLIELTQAGLKGSTEGSESYEEDPYLVVNPNYLLED
binds | MCM5 (protein, UniProt P33992 1-734) MSGFDDPGIFYSDSFGGDAQADEGQARKSQLQRRFKEFLRQYRVGTDRTGFTFKYRDELKRHYNLGEYWIEVEMEDLASFDEDLADYLYKQPAEHLQLLEEAAKEVADEVTRPRPSGEEVLQDIQVMLKSDASPSSIRSLKSDMMSHLVKIPGIIIAASAVRAKATRISIQCRSCRNTLTNIAMRPGLEGYALPRKCNTDQAGRPKCPLDPYFIMPDKCKCVDFQTLKLQELPDAVPHGEMPRHMQLYCDRYLCDKVVPGNRVTIMGIYSIKKFGLTTSRGRDRVGVGIRSSYIRVLGIQVDTDGSGRSFAGAVSPQEEEEFRRLAALPNVYEVISKSIAPSIFGGTDMKKAIACLLFGGSRKRLPDGLTRRGDINLLMLGDPGTAKSQLLKFVEKCSPIGVYTSGKGSSAAGLTASVMRDPSSRNFIMEGGAMVLADGGVVCIDEFDKMREDDRVAIHEAMEQQTISIAKAGITTTLNSRCSVLAAANSVFGRWDETKGEDNIDFMPTILSRFDMIFIVKDEHNEERDVMLAKHVITLHVSALTQTQAVEGEIDLAKLKKFIAYCRVKCGPRLSAEAAEKLKNRYIIMRSGARQHERDSDRRSSIPITVRQLEAIVRIAEALSKMKLQPFATEADVEEALRLFQVSTLDAALSGTLSGVEGFTSQEDQEMLSRIEKQLKRRFAIGSQVSEHSIIKDFTKQKYPEHAIHKVLQLMLRRGEIQHRMQRKVLYRLK
binds | MCM3 (protein, UniProt P25205 1-808) MAGTVVLDDVELREAQRDYLDFLDDEEDQGIYQSKVRELISDNQYRLIVNVNDLRRKNEKRANRLLNNAFEELVAFQRALKDFVASIDATYAKQYEEFYVGLEGSFGSKHVSPRTLTSCFLSCVVCVEGIVTKCSLVRPKVVRSVHYCPATKKTIERRYSDLTTLVAFPSSSVYPTKDEENNPLETEYGLSVYKDHQTITIQEMPEKAPAGQLPRSVDVILDDDLVDKAKPGDRVQVVGTYRCLPGKKGGYTSGTFRTVLIACNVKQMSKDAQPSFSAEDIAKIKKFSKTRSKDIFDQLAKSLAPSIHGHDYVKKAILCLLLGGVERDLENGSHIRGDINILLIGDPSVAKSQLLRYVLCTAPRAIPTTGRGSSGVGLTAAVTTDQETGERRLEAGAMVLADRGVVCIDEFDKMSDMDRTAIHEVMEQGRVTIAKAGIHARLNARCSVLAAANPVYGRYDQYKTPMENIGLQDSLLSRFDLLFIMLDQMDPEQDREISDHVLRMHRYRAPGEQDGDAMPLGSAVDILATDDPNFSQEDQQDTQIYEKHDNLLHGTKKKKEKMVSAAFMKKYIHVAKIIKPVLTQESATYIAEEYSRLRSQDSMSSDTARTSPVTARTLETLIRLATAHAKARMSKTVDLQDAEEAVELVQYAYFKKVLEKEKKRKKRSEDESETEDEEEKSQEDQEQKRKRRKTRQPDAKDGDSYDPYDFSDTEEEMPQVHTPKTADSQETKESQKVELSESRLKAFKVALLDVFREAHAQSIGMNRLTESINRDSEEPFSSVEIQAALSKMQDDNQVMVSEGIIFLI

target: Streptag-Tev-TIMELESS (human) (UniProt Q9UNS1); assay: co-purification (Strep-Tactin affinity, then SEC); TIMELESS-TIPIN: co-expressed in Sf21 cells; lysate on Strep-Tactin Superflow beads by Streptag-Tev-TIMELESS, 150 mM NaCl, elution with desthiobiotin, tag cleaved with Tev protease, Superdex 200

binding | Molecule
binds | TIPIN (protein, UniProt Q9BVW5 1-301) MLEPQENGVIDLPDYEHVEDETFPPFPPPASPERQDGEGTEPDEESGNGAPVRVPPKRTVKRNIPKLDAQRLISERGLPALRHVFDKAKFKGKGHEAEDLKMLIRHMEHWAHRLFPKLQFEDFIDRVEYLGSKKEVQTCLKRIRLDLPILHEDFVSNNDEVAENNEHDVTSTELDPFLTNLSESEMFASELSRSLTEEQQQRIERNKQLALERRQAKLLSNSQTLGNDMLMNTPRAHTVEEVNTDEDQKEESNGLNEDILDNPCNDAIANTLNEEETLLDQSFKNVQQQLDATSRNITEAR

target: Streptag-Tev-POLE3 (human) (UniProt Q9NRF9); assay: co-purification (Strep-Tactin affinity, then SEC); DNA polymerase epsilon: subunits co-expressed in Sf21 cells; lysate on Strep-Tactin Superflow beads by Streptag-Tev-POLE3, 500 mM KOAc, elution with desthiobiotin, Superdex 200

binding | Molecule
binds | POLE1 (from UniProt Q07864 1-2286)
binds | POLE4 (protein, UniProt Q9NR33 1-117) MAAAAAAGSGTPREEEGPAGEAAASQPQAPTSVPGARLSRLPLARVKALVKADPDVTLAGQEAIFILARAAELFVETIAKDAYCCAQQGKRKTLQRRDLDNAIEAVDEFAFLEGTLD
binds | POLE2 (protein, UniProt P56282 1-527) MAPERLRSRALSAFKLRGLLLRGEAIKYLTEALQSISELELEDKLEKIINAVEKQPLSSNMIERSVVEAAVQECSQSVDETIEHVFNIIGAFDIPRFVYNSERKKFLPLLMTNHPAPNLFGTPRDKAEMFRERYTILHQRTHRHELFTPPVIGSHPDESGSKFQLKTIETLLGSTTKIGDAIVLGMITQLKEGKFFLEDPTGTVQLDLSKAQFHSGLYTEACFVLAEGWFEDQVFHVNAFGFPPTEPSSTTRAYYGNINFFGGPSNTSVKTSAKLKQLEEENKDAMFVFLSDVWLDQVEVLEKLRIMFAGYSPAPPTCFILCGNFSSAPYGKNQVQALKDSLKTLADIICEYPDIHQSSRFVFVPGPEDPGFGSILPRPPLAESITNEFRQRVPFSVFTTNPCRIQYCTQEITVFREDLVNKMCRNCVRFPSSNLAIPNHFVKTILSQGHLTPLPLYVCPVYWAYDYALRVYPVPDLLVIADKYDPFTTTNTECLCINPGSFPRSGFSFKVFYPSNKTVEDSKLQGF
